Results taken from patent US20060276407A1, “Methods of treating hepatitis C virus” (Schering Corporation, priority 2005, published 2006).
At least one read-out could not be matched to a standard name with certainty.

How the values were obtained:
[1] = Food-effect crossover bioavailability study, 600 mg fed vs fasted, healthy adult subjects (Example 2); type: in vivo, human; conditions: 600 mg PO, mean, balanced data
Description: This was a randomized, open-label, single-dose, two-treatment (fed or fasted), two-period, two-sequence crossover study of the effect of food on the bioavailability of compound of Formula Ia in 23 healthy adult male and female subjects. The primary pharmacokinetic parameters were AUC(l) and Cmax for compound of Formula Ia. The study included a 7-day wash-out period between treatment periods.
Subjects were confined at the study site at least 14 hours prior to each treatment (Day −1). On the morning of Day 1, following a 10-hour overnight fast, subjects were randomized to receive in a particular order Treatment A and Treatment B: • Treatment A: compound of Formula Ia 600 mg (6×100 mg capsules) PO following an overnight fast. • Treatment B: compound of Formula Ia 600 mg (6×100 mg capsules) PO within 20 minutes following the completion of a standard high-fat breakfast. […]
Plasma concentrations of compound of Formula Ia were determined using a validated liquid chromatography tandem mass spectrometry (LC-MS/MS) method. The assay lower limit of quantitation (LLOQ) was 0.50 ng/mL and the method was validated over the concentration range of 0.50 to 1000 ng/mL.
The mean and percent coefficient of variation (% CV) were calculated for plasma concentrations of compound of Formula Ia at each time point. […] Terminal phase half-life (t½=ln 2/K) and apparent clearance (CLUF=Dose/AUC[l]) were also determined. […]

[2] = Phase 1 rising-single-dose pharmacokinetic study in healthy adult subjects (Example 1); type: in vivo, human; conditions: mean, n = 6
Description: A Phase 1, randomized, third-party-blind (within dose level), placebo-controlled, rising-single-dose study of compounds of Formulae I-XXVI was conducted in healthy adult subjects.
Nine subjects in each group received either compound of Formula Ia (n=6) or placebo (n=3). Those subjects randomized to active compound received one of the following doses of compound of Formula Ia: 50, 100, 200, 400, 600, or 800 mg.
On Day 1, at least 10 hours prior to compound administration, an overnight fast was maintained until 4 hours following treatment administration, after which lunch was served. During the fasting period, no food or fluid (except noncarbonated water) was permitted; furthermore, drinking water was prohibited from 2 hours predose to 2 hours postdose, with the exception of the approximately 240 mL administered with the treatments.
Blood samples (7 mL each) for the determination of compound of Formula Ia concentrations were collected immediately prior to dosing (0 hour), and at 0.25, 0.5, 0.75, 1, 1.5, 2, 3, 4, 5, 6, 8, 10, 12, 18, 24, 36, 48, 72, and 144 hours postdose. The blood samples were collected into tubes containing EDTA. The samples were separated by centrifugation at 4° C. for 15 minutes at 1500 g to obtain the plasma, and the plasma samples frozen at −20° C. until assayed.
Plasma concentrations of compound of Formula Ia were determined using a validated liquid chromatography tandem mass spectrometry (LC-MS/MS) method. The assay lower limit of quantitation (LLOQ) was 0.50 ng/mL, and the method was validated over the concentration range of 0.50 to 1000 ng/mL.
The mean and percent coefficients of variation (% CV) were calculated for the plasma concentrations of compound of Formula Ia at each time point. Concentration values less than the assay LLOQ were reported as and set to zero in the calculations and tables. The plasma concentration-time data for compound of Formula Ia were subjected to pharmacokinetic analysis by noncompartmental methods using WinNonlin software. Nominal sampling times were used for pharmacokinetic analysis.
For each subject, the following compound of Formula Ia pharmacokinetic parameters were determined: • Cmax Maximum observed plasma concentration • Tmax Time of maximum observed plasma concentration • tf Time of final quantifiable sample • AUC(tf) Area under the plasma concentration-time curve from time 0 to tf • AUC(l) Area under the plasma concentration-time curve from time 0 to infinity [AUC(l)=[…]+C(tf)estimated/k, where k and C(tf)estimated are terminal elimination rate constant and estimated concentration at final quantifiable sample, respectively] • t½ Terminal-phase half-life (t½=ln 2/k) • CL/F Apparent total body clearance (CL/F=Dose/AUC[l]) • Vd/F Apparent volume of distribution (Vd/F=CL/F*(t1/2/0.693))
Dose-adjusted (to 50 mg) Cmax, AUC(l), and AUC(tf) values were also calculated. Cmax, Tmax, and if were the observed values. The terminal phase rate constant (k) was calculated as the negative of the slope of the log-linear terminal portion of the plasma concentration-time curve using linear regression (at least three time points). The number of points needed to determine the terminal phase rate constant was selected by WinNonlin software.
Summary statistics, including means, standard deviations, and coefficients of variation (CV) expressed as a percent, were computed for the single-dose plasma compound of Formula Ia concentration data at each sampling time point and for the derived pharmacokinetic parameters for each dose level using a standard program based on SAS/STAT (Release 6.12; SAS Institute Inc., North Carolina).
The log-transformed dose-adjusted (to 50 mg) Cmax and AUC values of compound of Formula Ia were statistically analyzed using an analysis of variance (ANOVA) model. The effect due to treatment (dose) was extracted. Ninety-five percent confidence intervals (CIs) for the means at each dose level, based on the nontransformed data, were provided. […]

CC(C)(C)NC(=O)N[C@H](C(=O)N1C[C@H]2[C@@H]([C@H]1C(=O)NC(CC1CCC1)C(=O)C(N)=O)C2(C)C)C(C)(C)C (mixture of isomers) [Formula Ia, (1 R, 5S)-N-[3-Amino-1-(Cyclobutylmethyl)-2,3-Dioxopropyl]-3-[2(S)-[[[(1,1-Dimethylethyl)Amino]Carbonyl]Amino]-3,3-Dimethyl-1-Oxobutyl]-6,6-Dimethyl-3-Azabicyclo[3.1.0]Hexan-2(S)-Carboxamide]
Vd/F ([1]; fasted): 6729 L
Vd/F ([1]; fed (high-fat breakfast)): 1150 L
Vd/F ([2]; single oral dose 50 mg): 1072 L
Vd/F ([2]; single oral dose 100 mg): 2683 L
Vd/F ([2]; single oral dose 200 mg): 3845 L
Vd/F ([2]; single oral dose 400 mg): 5405 L
Vd/F ([2]; single oral dose 600 mg): 4107 L
Vd/F ([2]; single oral dose 800 mg): 5449 L
